Assay results published in patent US10471010B2, “Liposomal corticosteroids for treatment of inflammatory disorders in humans” (ENCELADUS PHARMACEUTICALS B.V., priority 2011, dated 2019).
For at least one compound, name, drawing or mass did not settle the structure.

What was measured:
[1] = potency of prednisolone set to 1; cited from earlier work
patients with active RA = assay: Human RA clinical trial (DAS28, EULAR response, pain VAS, safety)

Structure (SMILES)	potency ratio as compared to prednisolone [1]	EULAR response achieved (patients with active RA; single 150 mg i.v. liposomes or 120 mg i.m. methylprednisolone)	therapeutic improvement (DAS 28 scores) (patients with active RA; single 150 mg i.v. liposomes or 120 mg i.m. methylprednisolone, 7 patients per group)	time of maximum therapeutic activity (maximum reduction of EULAR disease activity scores) following administration (patients with active RA; single treatment: liposomes i.v. or equipotent free corticosteroid intramuscularly)	response in patients under chronic methotrexate therapy versus patients not taking methotrexate (DAS 28) (patients with active RA; single treatment, methotrexate n=4, no methotrexate n=3)
C[C@@H]1C[C@H]2[C@@H]3CCC4=CC(=O)C=C[C@]4(C)[C@@]3(F)[C@@H](O)C[C@]2(C)[C@@]1(O)C(=O)CO [Dexamethasone]	6.5				
C[C@H]1C[C@H]2[C@@H]3CCC4=CC(=O)C=C[C@]4(C)[C@@]3(F)[C@@H](O)C[C@]2(C)[C@@]1(O)C(=O)CO [betamethasone]	6.5				
C[C@H]1C[C@@H]2[C@H]([C@@H](O)C[C@@]3(C)[C@H]2CC[C@]3(O)C(=O)CO)[C@@]2(C)C=CC(=O)C=C12 [methylprednisolone]	1.25	only moderate	slower and more moderate therapeutic improvement	weeks three to seven	did not show a better response in combination with methotrexate
